Assay [1] has as its target T1, FLAG-tagged wild type Apoptin expressed from adenovirus Ad-Apwt (Chicken anemia virus) (UniProt Q99152).
T1 sequence: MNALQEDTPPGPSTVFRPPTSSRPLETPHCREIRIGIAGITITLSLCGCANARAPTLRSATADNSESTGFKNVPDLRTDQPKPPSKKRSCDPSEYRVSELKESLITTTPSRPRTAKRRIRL
As to the kind of experiment: co-immunoprecipitation on anti-FLAG beads from H1299 cells (multimerization).

By UniProt entry, the sequences of proteins in these tests, tags left out.
UniProt Q9H1A4: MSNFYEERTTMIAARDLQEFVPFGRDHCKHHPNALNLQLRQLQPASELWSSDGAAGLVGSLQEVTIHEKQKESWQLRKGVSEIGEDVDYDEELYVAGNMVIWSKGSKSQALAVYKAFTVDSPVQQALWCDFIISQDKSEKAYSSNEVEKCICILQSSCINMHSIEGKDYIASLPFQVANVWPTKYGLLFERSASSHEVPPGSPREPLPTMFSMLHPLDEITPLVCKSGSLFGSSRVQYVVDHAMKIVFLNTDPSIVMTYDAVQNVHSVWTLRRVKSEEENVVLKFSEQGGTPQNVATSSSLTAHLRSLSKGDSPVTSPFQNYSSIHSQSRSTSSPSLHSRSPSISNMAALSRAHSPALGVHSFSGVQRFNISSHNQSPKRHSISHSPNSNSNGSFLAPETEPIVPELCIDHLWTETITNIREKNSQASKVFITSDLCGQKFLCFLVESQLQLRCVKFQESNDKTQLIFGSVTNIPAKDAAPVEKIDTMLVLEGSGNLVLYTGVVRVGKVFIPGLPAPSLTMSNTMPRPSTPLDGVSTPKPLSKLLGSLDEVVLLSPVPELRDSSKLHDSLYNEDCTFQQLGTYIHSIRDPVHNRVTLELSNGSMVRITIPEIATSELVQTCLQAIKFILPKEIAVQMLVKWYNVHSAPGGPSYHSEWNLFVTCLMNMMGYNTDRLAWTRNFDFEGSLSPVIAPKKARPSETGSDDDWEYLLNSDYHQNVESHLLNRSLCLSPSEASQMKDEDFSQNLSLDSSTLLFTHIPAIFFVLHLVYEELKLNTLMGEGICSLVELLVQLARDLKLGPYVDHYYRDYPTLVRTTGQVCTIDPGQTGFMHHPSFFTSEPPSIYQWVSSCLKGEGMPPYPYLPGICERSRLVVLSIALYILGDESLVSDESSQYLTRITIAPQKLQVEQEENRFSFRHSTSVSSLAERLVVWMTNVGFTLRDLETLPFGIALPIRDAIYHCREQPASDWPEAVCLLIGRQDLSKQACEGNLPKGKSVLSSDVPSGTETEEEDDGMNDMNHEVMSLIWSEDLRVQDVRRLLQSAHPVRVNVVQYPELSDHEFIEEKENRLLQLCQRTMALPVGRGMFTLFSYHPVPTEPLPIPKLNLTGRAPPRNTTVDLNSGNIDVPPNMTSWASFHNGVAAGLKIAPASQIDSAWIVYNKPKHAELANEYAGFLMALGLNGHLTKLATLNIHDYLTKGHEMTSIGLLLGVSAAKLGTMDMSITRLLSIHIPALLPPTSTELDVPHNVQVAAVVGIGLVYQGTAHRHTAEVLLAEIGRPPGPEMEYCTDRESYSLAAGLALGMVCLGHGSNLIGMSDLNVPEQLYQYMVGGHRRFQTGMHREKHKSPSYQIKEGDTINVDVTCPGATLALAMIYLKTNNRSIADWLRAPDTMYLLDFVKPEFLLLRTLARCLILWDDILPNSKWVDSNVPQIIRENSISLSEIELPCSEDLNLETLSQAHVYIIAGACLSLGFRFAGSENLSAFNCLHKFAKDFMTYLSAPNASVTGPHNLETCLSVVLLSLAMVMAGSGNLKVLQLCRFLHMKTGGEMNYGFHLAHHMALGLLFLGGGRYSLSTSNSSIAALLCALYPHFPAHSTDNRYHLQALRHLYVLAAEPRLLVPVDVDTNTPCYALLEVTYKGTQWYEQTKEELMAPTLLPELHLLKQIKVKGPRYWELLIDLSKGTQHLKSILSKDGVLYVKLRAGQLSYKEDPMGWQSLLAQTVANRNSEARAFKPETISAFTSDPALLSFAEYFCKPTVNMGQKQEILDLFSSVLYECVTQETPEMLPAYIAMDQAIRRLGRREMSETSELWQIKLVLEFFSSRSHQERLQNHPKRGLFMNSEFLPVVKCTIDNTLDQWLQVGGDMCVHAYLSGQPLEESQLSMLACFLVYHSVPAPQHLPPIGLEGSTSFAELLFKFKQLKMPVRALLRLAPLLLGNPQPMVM

The target in assay [2] is anaphase promoting complex subunit 1 (APC1) (Homo sapiens) (UniProt Q9H1A4). As to the kind of experiment: anti-FLAG co-immunoprecipitation of FLAG-Apoptin deletion mutants from H1299 cells, APC1 immunoblot. (A western blot detects proteins with antibodies after separation by electrophoresis.)

Results are given in words; binding and its absence hold for the method and conditions named. In cells and extracts the contact can be indirect. Some entries that bind do so weakly or less than the wild type. For some of these results: Where a sequence is shown, tags or fusion partners need not be part of it.

GFP-Ap(1-88) (from UniProt P54094 1-88): the binding result in assay [1] is “binds”.

Take GFP-Ap(1-48) (from UniProt P54094 1-48): in assay [1], the binding entry is recorded as “binds”.

As for “FLAG-tagged Apoptin deletion mutant Ap(82-121) (from UniProt Q99152 82-121)”, in assay [2], the binding result is recorded as “binds”.

Consider “FLAG-tagged Apoptin deletion mutant Ap(42-121) (from UniProt Q99152 42-121)”, for which the binding entry in assay [2] was “binds”.

The record behind these values is US20060057652A1.
